Several values for one entry are separate records, joined by “and”; a condition that tells them apart may be missing. Equal entries are not always repeated. Hit rate of the full screen: of about 580,000 compounds, about 6,100 (1.1%) were called active. Inconclusive results, whose numbers are uncertain, are shown with a selection of clear calls. Calls follow the shape of the dose curve; as a rule, active = well fitted inhibition curve with a large enough effect; inconclusive = small, poorly fitted or top-dose-only effect, or another doubt; inactive = no such curve, though single readings can be large or run the other way. Where the call is inconclusive, the potency comes from a doubtful curve fit.
Biological target: Polyunsaturated fatty acid lipoxygenase ALOX12 (Homo sapiens) (UniProt P18054)
Assay: Primary qHTS assay for inhibitors of human arachidonate 12S-lipoxygenase (ALOX12): Round 2
Conditions: purified 12hLO, xylenol orange hydroperoxide absorbance; activity change, negative = inhibition: at 108 µM (top of the series) unless noted
How it was run: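 Purified human 12hLO at 150 nM in 25 mM Hepes, 0.01% Triton X-100, pH 7.0, preincubated 15 min at room temperature with compound. Reaction started with 40 uM arachidonic acid, 30 min at room temperature. Hydroperoxide measured by Fe-xylenol orange, 573/405 nm absorbance ratio.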
% is scaled to controls: 0 for no effect and ±100 for the full control effect; potency is read from the fitted curve at half-maximal effect.

Protein sequences, listed by entry. Tags and fused reporters are not part of them.
UniProt P18054, whole entry, looked up: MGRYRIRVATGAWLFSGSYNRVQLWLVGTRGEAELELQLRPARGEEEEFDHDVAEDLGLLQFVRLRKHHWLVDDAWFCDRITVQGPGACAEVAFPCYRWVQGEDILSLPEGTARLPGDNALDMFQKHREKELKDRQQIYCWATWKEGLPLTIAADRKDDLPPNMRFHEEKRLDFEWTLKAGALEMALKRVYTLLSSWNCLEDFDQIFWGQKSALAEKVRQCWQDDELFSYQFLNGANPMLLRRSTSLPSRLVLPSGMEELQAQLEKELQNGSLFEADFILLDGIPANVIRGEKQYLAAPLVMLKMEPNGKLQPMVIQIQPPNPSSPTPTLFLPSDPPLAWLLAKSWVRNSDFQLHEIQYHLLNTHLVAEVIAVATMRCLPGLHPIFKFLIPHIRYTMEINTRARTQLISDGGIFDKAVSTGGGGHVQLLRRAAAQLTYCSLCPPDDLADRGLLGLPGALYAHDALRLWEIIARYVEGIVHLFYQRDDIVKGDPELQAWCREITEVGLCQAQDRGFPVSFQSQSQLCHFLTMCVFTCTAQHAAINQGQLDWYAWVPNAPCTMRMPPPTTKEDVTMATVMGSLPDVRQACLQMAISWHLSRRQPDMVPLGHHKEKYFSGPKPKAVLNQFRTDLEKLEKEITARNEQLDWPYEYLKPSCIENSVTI

SMILES | Potency | activity change, negative = inhibition
S=C(NCCc1ccccc1)Nc1ccc(Br)cn1 | inconclusive: 5.01 µM [inhibitor, full curve, poor fit] | –
O=C1COC[C@H]([C@H](O)c2ccc(NC(=O)c3ccccc3)cc2)N1 | – | inactive: -12.9% [at 176 µM]
COc1ccc(-c2nnc(SCC(=O)NCCc3ccccc3)nc2-c2ccc(OC)cc2)cc1 | – | inactive: -21.7%
Nc1n[nH]c(-c2ccc(F)cc2)n1 | – | inactive: -15.3%
CC(C)(C)c1ccc(-c2nc(-c3ccc(Br)o3)no2)cc1 | – | inactive: 15.1%
N[C@H](CCCP(=O)(O)O)C(=O)O | inconclusive: 35.5 µM [inhibitor, single point] and inconclusive: 50.1 µM [inhibitor, partial curve, poor fit] | –
CC(C)Cc1cc(C(=O)N2CCc3[nH]nc(-c4ccccc4F)c3C2)n(C)n1 | – | inactive: 61.5%
Cn1nc(C(F)(F)F)c(-c2cccc(C(F)(F)F)c2)c1NC(=O)c1nccnc1C(=O)O | inconclusive: 100 µM [inhibitor, single point] | –
COc1cccc(NC(=S)N(Cc2ccco2)C(C)c2ccco2)c1 (stereo not given) | – | inactive: -10.1%
CCOC(=O)c1c(C)n(-c2ccc(C)cc2)c2ccc(OCC(O)CN3CCN(C)CC3)cc12 (stereo not given) | inconclusive: 56.2 µM [inhibitor, partial curve, poor fit] | –
Cc1cccc(CCN2C(Nc3ccccc3)=NC[C@@H]2C)c1 | inconclusive: 0.251 µM [inhibitor, full curve, poor fit] | –
CN1CC(=O)N(C2CCCNCC2)Cc2c1ncnc2N1CCCCC1 (stereo not given) | inconclusive: 14.1 µM [inhibitor, full curve] | –
COc1ccc(CN2CCNC(=O)C2CC(=O)N2CCCC2)c(C)c1C (stereo not given) | inconclusive: 7.94 µM [inhibitor, partial curve, poor fit] | –
Cc1ccc(Cl)cc1NC(=O)c1cc(-c2ccc3c(c2)OCCO3)on1 | – | inactive: -27.6%
CCSc1nnc(NC(=O)C2CCCCC2)s1 | – | inactive: 0%
COc1ccccc1N1C(=O)C2CCC(c3ccccc3)CC2C1=O (stereo not given) | inconclusive: 50.1 µM [inhibitor, partial curve, poor fit] | –
COC[C@H]1C[C@@H](NS(=O)(=O)c2cccc(C(F)(F)F)c2)[C@H](O)[C@@H]1O | – | inconclusive: -30.2% [inhibitor] [at 176 µM]
CCOc1cccc2sc(N(CCN(CC)CC)C(=O)c3cccc(N4C(=O)CCC4=O)c3)nc12 | inconclusive: 63.1 µM [inhibitor, partial curve, poor fit] | –
COc1ccc(C(=O)C(OC(=O)c2ccccc2Cl)c2ccccc2)cc1 (stereo not given) | – | inactive: 13.4%
COc1ccc(NC(=O)c2ccc3c(c2)OCCN(c2ccccc2)C3)c(F)c1 | – | inactive: 0.884% [at 176 µM]

Quoted at random: two records from the list, in no set order.
SMILES | Potency | activity change, negative = inhibition
CCSc1nnc(NC(=O)C2CCCCC2)s1 | – | inactive: 0%
COc1cccc(NC(=S)N(Cc2ccco2)C(C)c2ccco2)c1 (stereo not given) | – | inactive: -10.1%

From PubChem BioAssay AID1671190 (National Center for Advancing Translational Sciences (NCATS), 2021)
